# Source: PubChem BioAssay AID504467 (National Center for Advancing Translational Sciences (NCATS), 2011)
# About 7,700 (2.3%) of roughly 330,000 compounds were called active. Inconclusive means that the source gave no clear call. Such entries were picked first, then a sample of the others. The call rests on the fitted dose curve; in most records, active means well fitted inhibition curve with a large enough effect; inconclusive means small, poorly fitted or top-dose-only effect, or effect the other way; inactive means flat fitted curve, though single readings scatter. Potencies beside an inconclusive call are fits to weak or partial responses and may not hold up.
# Experiment: qHTS screen for small molecules that inhibit ELG1-dependent DNA repair in human embryonic kidney (HEK293T) cells expressing luciferase-tagged ELG1; further: nearly all actives have a fitted effect of over 55% in size
# Details: HEK293T ELG1-luciferase reporter, luminescence, 16 h, DNA damage induced by 5-fluorouridine; series mostly up to 46.1 µM
# Summary of the method: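 DMSO vehicle served as the neutral condition. Each well held 2,000 cells given 5-fluorouridine plus compound; after 16 hr at 37 °C/5% CO2, ONE-Glo was added and luciferase measured 30 min later.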
# Potency means the concentration at half of the fitted maximal effect.
row,SMILES,Potency
1,COc1ccc(C(=O)C2CCCN(C(=O)c3noc4c3CCCC4)C2)cc1F (stereo not given),"inconclusive: 25.9 µM [inhibitor, partial curve, poor fit]"
2,COc1ccc(NC(=O)c2ccc(NC3CC(=O)N(c4ccc(C)cc4C)C3=O)cc2)cc1 (stereo not given),"inconclusive: 23.1 µM [activator, single point]"
3,O=C(CCc1ccncc1)N1CCCC(Nc2ccc(F)cc2)C1 (stereo not given),"inconclusive: 11.6 µM [inhibitor, partial curve, poor fit]"
4,CCCCNC(=O)O/N=C(\N)CS(=O)(=O)C(C)(C)C,inactive
5,COc1cccc(CN(C)C(=O)c2cc(COc3ccc(-n4cncn4)cc3)on2)c1,"inconclusive: 18.3 µM [inhibitor, partial curve]"
6,O=C1CCCCN1CCC(=O)N1CCCC(N2CCN(c3cccc(Cl)c3)CC2)C1 (stereo not given),"inconclusive: 20.6 µM [activator, single point]"
7,N=c1oc2ccccc2cc1C(=O)NCc1ccccc1,"inconclusive: 16.4 µM [activator, single point]"
8,COc1c(Cl)ccc(Cl)c1C(=O)NC(=O)N1CCOCC1,inactive
9,COc1ccc(OC)c(C(=O)Cn2nnc(-c3ccc(N4CCOCC4)cc3)n2)c1,"inconclusive: 25.9 µM [inhibitor, single point]"
10,OCC1(Cc2cccc(Cl)c2)CCCN(Cc2sc(N3CCCC3)nc2Cl)C1 (stereo not given),inactive
11,CC(=O)Nc1nccc(-c2cc(-c3ccccc3)no2)n1,"inconclusive: 16.4 µM [activator, partial curve]"
12,CN1CCN(C(=O)c2ccc(CN3CCOCC3)cc2)CC1,inactive
13,COCCNC(=O)C1=NOC(Cn2cc(C#N)c(=O)n(C)c2=O)C1 (stereo not given),inactive
14,OC1CCN(c2c3c(nc4cc(-c5ccc(F)cc5)nn24)CCC3)CC1,"inconclusive: 20.6 µM [inhibitor, single point]"
15,CC1CCCCN1C(=O)CN1CCC(c2nc3ccc(Cl)cc3[nH]2)CC1 (stereo not given),"inconclusive: 25.9 µM [inhibitor, single point]"
16,COc1ccc(O)c(/C=N/N2CCOCC2)c1,"inconclusive: 20.6 µM [activator, single point]"
17,Cc1ccc(C(=O)NC2CCCCNC2=O)cc1 (stereo not given),"inconclusive: 23.1 µM [activator, partial curve]"
18,COc1ccccc1C(=O)Nc1nnc(S(=O)(=O)N(C)Cc2ccccc2)s1,"inconclusive: 25.9 µM [activator, single point]"
19,O=C1CN(CC(=O)Nc2cccc(Cl)c2Cl)c2ccccc2N1,inactive
20,CCCC(=O)Nc1sc2c(c1C(=O)OCC)CC(C)(C)OC2,active: 7.3 µM
21,COc1ccc(CN2CCN(Cc3c[nH]c4ccccc34)CC2CCO)c(F)c1 (stereo not given),"inconclusive: 2.06 µM [inhibitor, partial curve, poor fit]"
22,Cc1ccc(-c2nn(-c3ccc(F)cc3)cc2C(=O)NC2CCC(O)CC2)cc1 (stereo not given),"inconclusive: 0.651 µM [activator, partial curve, poor fit]"
23,Cc1cc(NC(=O)c2cccc(S(=O)(=O)Nc3cccc(C(=O)O)c3)c2)no1,inactive
24,COc1ccc2nc(NC(=O)CSc3nnc(C)s3)sc2c1,"inconclusive: 3.66 µM [activator, full curve]"

row,SMILES,Potency
1,CCN1CCc2c(C#N)c(NCc3ccccc3)nc(NCCO)c2C1,"inconclusive: 1.03 µM [inhibitor, single point]"
2,COc1ccc(C(=O)Nc2ccccc2C(=O)O)cc1NC(=O)C(c1ccccc1)c1ccccc1,"inconclusive: 29.1 µM [activator, partial curve, poor fit]"
3,O=C(CSc1ccccc1)Nc1cccc(S(=O)(=O)N2CCOCC2)c1,"inconclusive: 18.3 µM [inhibitor, single point]"
4,CN(Cc1ccccc1)C(=O)C1CCC(CNS(=O)(=O)c2cccc3cccnc23)CC1 (stereo not given),"inconclusive: 18.3 µM [inhibitor, partial curve]"
5,O=C(/C=C/c1cccc([N+](=O)[O-])c1)Nc1ccccc1N1CCOCC1,"inconclusive: 16.4 µM [inhibitor, partial curve, poor fit]"
6,COc1cccc2sc3cc(NCC[C@@H]4CCCN4C)ccc3c(=O)c12,"inconclusive: 20.6 µM [activator, partial curve]"
7,COc1cccc(NC(=O)c2cc(-c3cccnc3)nc3c(Cl)cccc23)c1,"inconclusive: 3.26 µM [inhibitor, full curve, poor fit]"
8,Cc1onc(-c2c(Cl)cccc2Cl)c1C(=O)N1CCN(c2ccccc2)CC1,"inconclusive: 29.1 µM [inhibitor, single point]"
9,COc1ccccc1C(=O)Nc1nc2ccccc2[nH]1,"inconclusive: 0.0231 µM [activator, full curve, poor fit]"
10,Cc1ccc(C)c(S(=O)(=O)N2CCN(C(=O)Cn3c(=O)cnc4ccccc43)CC2)c1,inactive
11,CC(=NCCCn1ccnc1)C1=C(O)c2ccccc2C1=O,"inconclusive: 25.9 µM [activator, single point]"
12,CC1CCCN(S(=O)(=O)c2ccc(NC(=O)CNC3CCCC3)cc2)C1 (stereo not given),inactive
13,CCCOC(=O)c1ccc(NC(=O)c2ccoc2C)cc1,"inconclusive: 29.1 µM [inhibitor, single point]"
14,N=C1C(c2nc3ccccc3[nH]2)=C(O)CN1C1CCCCC1,"inconclusive: 2.06 µM [activator, partial curve, poor fit]"
15,CSc1ccc(CN2CCC(CO)(CCOc3ccccc3)CC2)cc1,inactive
16,CN(C)c1ccc(C2CNC(c3ccc(Cl)c([N+](=O)[O-])c3)c3[nH]c4ccccc4c32)cc1 (stereo not given),"inconclusive: 25.9 µM [inhibitor, single point]"
17,O=C(Nc1ccncc1)c1ccccc1Cl,inactive
18,O=C1C(Cl)=C(N2CCN(c3ccccc3[N+](=O)[O-])CC2)C(=O)c2ccccc21,"inconclusive: 29.1 µM [inhibitor, single point]"
19,CC1(C)CC(=O)c2c(O)c(-c3ccccc3)c(=O)n(-c3ccccc3)c2C1,inactive
20,Fc1ccccc1-n1cn[nH]c1=S,"inconclusive: 16.4 µM [activator, partial curve]"
21,O=C(NC(=S)Nc1ccc(S(=O)(=O)N2CCCCC2)cc1)c1ccc(Cl)cc1,inactive
22,CC/C(=N\NC(=O)C(N)=O)c1ccccc1O,"inconclusive: 29.1 µM [inhibitor, partial curve, poor fit]"
23,COc1ccc(C(=O)NC(=S)Nc2ccccc2F)cc1,"inconclusive: 7.31 µM [activator, partial curve]"
24,COC(=O)CN1C(CN2CCOCC2)=Nc2ccc(Br)cc2C1c1ccccc1 (stereo not given),"inconclusive: 16.4 µM [inhibitor, single point]"

# Some of the entries so far, bar-delimited.
row | SMILES | Potency
22 | CC/C(=N\NC(=O)C(N)=O)c1ccccc1O | inconclusive: 29.1 µM [inhibitor, partial curve, poor fit]
23 | COc1ccc(C(=O)NC(=S)Nc2ccccc2F)cc1 | inconclusive: 7.31 µM [activator, partial curve]
24 | COC(=O)CN1C(CN2CCOCC2)=Nc2ccc(Br)cc2C1c1ccccc1 (stereo not given) | inconclusive: 16.4 µM [inhibitor, single point]

# Further results follow:

row,SMILES,Potency
1,COC(=O)CCCNC(=O)c1ccc2oc(CCCc3ccccc3)nc2c1,"inconclusive: 14.6 µM [activator, partial curve]"
2,O=C(CSc1n[nH]c(-c2ccncc2)n1)Nc1ccc(Cl)c(Cl)c1,"inconclusive: 20.6 µM [inhibitor, single point]"
3,Cc1onc(-c2c(F)cccc2Cl)c1C(=O)N1CCCC1,inactive
4,CCS(=O)(=O)c1ccc2oc(SCC(=O)NCc3ccccc3)nc2c1,inactive
5,COc1ccc(C(=O)N2CCn3c2nc2ccccc23)cc1,"inconclusive: 16.4 µM [activator, partial curve]"
6,Cc1ccsc1C(=O)NNC(=O)C1CCCCC1C(=O)O (stereo not given),"inconclusive: 20.6 µM [activator, single point]"
7,CCCN1C2CCCC1CC(NC(=S)Nc1cccc(C)c1C)C2 (stereo not given),inactive
8,Cc1ccc(C)c(OCCn2cc(/C=C(/C#N)C(=O)NCC3CCCO3)c3ccccc32)c1 (stereo not given),active: 14.6 µM
9,CCC(=O)N1c2ccc(S(=O)(=O)N(CCO)Cc3ccccc3)cc2CC1C (stereo not given),"inconclusive: 32.6 µM [inhibitor, partial curve, poor fit]"
10,CCCCN(C)C(=O)C1CCC(CNS(=O)(=O)c2ccc3c(c2)CC(C)N3C(C)=O)CC1 (stereo not given),inactive
11,Cc1ccc(OCC(=O)Nc2ccc(F)cc2)c([N+](=O)[O-])n1,"inconclusive: 13 µM [activator, partial curve]"
12,Cc1ccc(S(=O)(=O)N(C)c2ccc(OC(=O)COc3ccccc3)cc2)cc1,"inconclusive: 32.6 µM [inhibitor, single point]"
13,Cn1c(=O)[nH]c(=O)c2c1nc(N1CCN(Cc3ccccc3)CC1)n2CCCc1ccccc1,"inconclusive: 35.5 µM [inhibitor, single point]"
14,CCOc1ccc(CN(C)C(=O)[C@H](Cc2ccccc2)NC(=O)OCc2ccccc2)cc1OC,"inconclusive: 25.9 µM [inhibitor, partial curve, poor fit]"
15,Cc1nc(C/C(=N\N)c2ccc(O)cc2O)cs1,inactive
16,Cc1ccnc(NC(=O)CCC(=O)c2cccs2)c1,"inconclusive: 0.146 µM [activator, full curve]"
17,O=C1CC(c2ccccc2)CC2=C1C(c1ccccn1)Nc1ccccc1N2 (stereo not given),inactive
18,CC(C)(C)N/N=C/c1cc(Cl)cc([N+](=O)[O-])c1O,inactive
19,O=C(Nc1ccc(Cl)c(Cl)c1)Nc1ccon1,"inconclusive: 14.6 µM [inhibitor, partial curve, poor fit]"
20,Cc1ccc(N(CC(=O)NC2CCCCC2)S(=O)(=O)c2cccs2)cc1,inactive
21,CN(C(=O)Cn1cnc([N+](=O)[O-])n1)C1CCCCC1,inactive
22,CO[C@@H]1[C@@H](OC(N)=O)[C@@H](O)C(Oc2ccc3c(O)c(NC(=O)c4ccc(O)c(CC=C(C)C)c4)c(=O)oc3c2C)OC1(C)C (stereo not given in full),"inconclusive: 35.5 µM [inhibitor, single point]"
